We go through five targets from the supplement of paper PMC6411743.

Chains of the proteins cited; added tags and fusions are not shown. Lines headed by an entry give the natural chain unless they say otherwise; changes in a name come on top.
UniProt Q8IWD4: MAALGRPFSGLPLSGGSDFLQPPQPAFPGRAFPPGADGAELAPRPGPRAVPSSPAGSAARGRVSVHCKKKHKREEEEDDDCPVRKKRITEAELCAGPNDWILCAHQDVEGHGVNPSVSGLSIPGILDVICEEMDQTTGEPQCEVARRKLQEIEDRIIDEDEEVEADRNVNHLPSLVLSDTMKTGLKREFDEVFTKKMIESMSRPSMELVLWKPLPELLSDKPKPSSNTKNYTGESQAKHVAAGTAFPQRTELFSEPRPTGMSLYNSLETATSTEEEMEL
UniProt Q8IVW6: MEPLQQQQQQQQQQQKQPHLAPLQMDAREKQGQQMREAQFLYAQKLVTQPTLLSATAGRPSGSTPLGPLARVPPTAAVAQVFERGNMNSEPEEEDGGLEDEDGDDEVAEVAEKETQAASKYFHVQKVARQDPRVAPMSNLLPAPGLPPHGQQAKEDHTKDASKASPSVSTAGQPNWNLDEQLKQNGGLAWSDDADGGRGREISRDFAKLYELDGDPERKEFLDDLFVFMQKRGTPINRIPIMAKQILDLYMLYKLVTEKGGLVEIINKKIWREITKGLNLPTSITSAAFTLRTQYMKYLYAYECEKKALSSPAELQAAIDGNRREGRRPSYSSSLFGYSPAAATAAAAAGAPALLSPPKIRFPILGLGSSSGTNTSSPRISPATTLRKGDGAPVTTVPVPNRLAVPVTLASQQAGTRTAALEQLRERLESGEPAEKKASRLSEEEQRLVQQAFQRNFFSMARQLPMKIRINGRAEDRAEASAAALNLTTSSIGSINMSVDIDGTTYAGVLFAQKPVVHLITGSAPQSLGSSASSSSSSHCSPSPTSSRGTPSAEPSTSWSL
UniProt Q8IUD2: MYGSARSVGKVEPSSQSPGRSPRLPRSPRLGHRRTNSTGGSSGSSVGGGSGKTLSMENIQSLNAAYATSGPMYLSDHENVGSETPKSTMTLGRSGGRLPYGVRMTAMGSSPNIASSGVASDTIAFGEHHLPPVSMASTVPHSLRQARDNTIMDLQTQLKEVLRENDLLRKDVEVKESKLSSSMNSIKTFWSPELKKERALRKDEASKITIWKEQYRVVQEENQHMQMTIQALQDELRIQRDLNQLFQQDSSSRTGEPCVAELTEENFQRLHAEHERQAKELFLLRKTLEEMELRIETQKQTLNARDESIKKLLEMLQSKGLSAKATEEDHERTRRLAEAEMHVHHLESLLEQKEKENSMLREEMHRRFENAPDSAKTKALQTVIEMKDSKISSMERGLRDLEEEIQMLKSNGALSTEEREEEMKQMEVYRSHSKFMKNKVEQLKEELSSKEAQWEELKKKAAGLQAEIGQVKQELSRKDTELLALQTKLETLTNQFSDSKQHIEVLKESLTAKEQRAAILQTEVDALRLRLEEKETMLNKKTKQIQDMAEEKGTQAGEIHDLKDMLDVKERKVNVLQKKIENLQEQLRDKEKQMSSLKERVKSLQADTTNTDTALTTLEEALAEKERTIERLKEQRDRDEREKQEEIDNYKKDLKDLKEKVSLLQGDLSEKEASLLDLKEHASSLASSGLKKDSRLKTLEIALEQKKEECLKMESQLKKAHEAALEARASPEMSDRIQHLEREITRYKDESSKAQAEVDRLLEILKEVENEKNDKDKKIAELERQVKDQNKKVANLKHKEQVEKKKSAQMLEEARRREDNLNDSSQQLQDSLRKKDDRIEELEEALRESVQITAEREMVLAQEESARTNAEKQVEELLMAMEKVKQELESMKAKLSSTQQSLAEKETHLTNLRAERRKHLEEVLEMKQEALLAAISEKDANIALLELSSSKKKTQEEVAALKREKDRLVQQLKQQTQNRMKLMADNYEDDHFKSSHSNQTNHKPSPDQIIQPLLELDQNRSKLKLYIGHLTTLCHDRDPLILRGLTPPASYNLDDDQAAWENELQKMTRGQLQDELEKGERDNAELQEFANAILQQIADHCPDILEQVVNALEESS
UniProt Q8N2W9: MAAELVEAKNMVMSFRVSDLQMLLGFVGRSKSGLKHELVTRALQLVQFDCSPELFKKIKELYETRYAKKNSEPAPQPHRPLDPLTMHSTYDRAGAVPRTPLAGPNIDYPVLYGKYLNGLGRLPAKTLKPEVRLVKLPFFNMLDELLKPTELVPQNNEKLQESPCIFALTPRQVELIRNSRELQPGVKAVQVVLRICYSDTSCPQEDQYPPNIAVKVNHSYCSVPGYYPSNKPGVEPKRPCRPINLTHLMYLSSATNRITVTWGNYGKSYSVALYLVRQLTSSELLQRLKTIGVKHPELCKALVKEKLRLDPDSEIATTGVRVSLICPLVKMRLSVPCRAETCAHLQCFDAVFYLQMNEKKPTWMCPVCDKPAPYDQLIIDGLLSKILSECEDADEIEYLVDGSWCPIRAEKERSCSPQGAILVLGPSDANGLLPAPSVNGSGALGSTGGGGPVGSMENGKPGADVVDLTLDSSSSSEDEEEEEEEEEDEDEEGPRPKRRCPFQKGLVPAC
UniProt Q8N8A2: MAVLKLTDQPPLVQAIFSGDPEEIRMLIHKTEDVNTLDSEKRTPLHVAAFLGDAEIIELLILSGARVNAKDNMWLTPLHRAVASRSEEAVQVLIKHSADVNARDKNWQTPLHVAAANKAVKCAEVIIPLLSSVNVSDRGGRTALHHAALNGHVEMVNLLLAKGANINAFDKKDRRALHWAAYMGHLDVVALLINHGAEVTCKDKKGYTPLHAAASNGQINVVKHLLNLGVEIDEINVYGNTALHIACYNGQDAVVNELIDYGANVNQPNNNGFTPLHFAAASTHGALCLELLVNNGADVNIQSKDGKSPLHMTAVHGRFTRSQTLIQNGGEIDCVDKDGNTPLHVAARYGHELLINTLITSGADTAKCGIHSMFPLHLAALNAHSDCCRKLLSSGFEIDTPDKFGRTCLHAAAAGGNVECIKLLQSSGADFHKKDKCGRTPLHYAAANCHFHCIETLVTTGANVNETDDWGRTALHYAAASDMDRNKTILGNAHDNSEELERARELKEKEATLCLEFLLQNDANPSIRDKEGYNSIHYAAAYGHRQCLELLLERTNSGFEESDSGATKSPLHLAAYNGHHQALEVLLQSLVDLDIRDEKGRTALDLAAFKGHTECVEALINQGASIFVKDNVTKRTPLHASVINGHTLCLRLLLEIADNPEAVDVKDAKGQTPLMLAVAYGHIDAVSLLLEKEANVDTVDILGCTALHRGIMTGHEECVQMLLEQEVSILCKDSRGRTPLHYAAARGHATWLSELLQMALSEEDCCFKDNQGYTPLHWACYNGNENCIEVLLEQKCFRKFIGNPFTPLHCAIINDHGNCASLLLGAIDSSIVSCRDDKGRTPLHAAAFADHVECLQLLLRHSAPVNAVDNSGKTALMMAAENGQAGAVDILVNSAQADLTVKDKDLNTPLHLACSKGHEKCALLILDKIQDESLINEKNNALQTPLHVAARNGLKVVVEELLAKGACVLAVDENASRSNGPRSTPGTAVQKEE

Compound in the experiment: Nc1nc2c(ncn2[C@@H]2O[C@H](COP(=O)(O)OP(=O)(O)OP(=O)(O)O)[C@@H](O)[C@H]2O)c(=O)[nH]1 [guanosine triphosphate]
Briefly: NP40-soluble protein abundance relative to vehicle (solubility fold change) (ratio); higher = more soluble protein in presence of GTP. How it is done:
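Solubility proteome profiling in Jurkat crude lysate. Lysate was treated with Mg-GTP (0.1-10 mM) for 10 min at room temperature and 3 min at 37 °C, then solubilised with 0.8% NP40 and benzonase, followed by ultracentrifugation. Proteins were quantified by TMT10 LC-MS/MS; the value is the NP40-soluble abundance relative to the NP40-processed vehicle, from 3 independent experiments.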

± gives the standard deviation of the averaged measurements. The list shows a part of the results.

Regarding UniProt Q8IWD4 and related entries, the NP40-soluble protein abundance by setting is: (concentration: 0.1mM) 0.937 ± 0.046; (concentration: 0.5mM) 0.954 ± 0.064; (concentration: 1mM) 0.981 ± 0.018; (concentration: 2mM) 0.992 ± 0.084; (concentration: 4mM) 0.927 ± 0.022; (concentration: 6mM) 0.935 ± 0.045. For the same target, the NP40-soluble protein abundance by setting is: (concentration: 8mM) 0.971 ± 0.017; (concentration: 10mM) 1.01 ± 0.072.

For the target UniProt Q8IVW6 and related entries, the NP40-soluble protein abundance worked out at 1.01 ± 0.058 (concentration: 0.1mM); 1.06 ± 0.092 (concentration: 0.5mM); 1.03 ± 0.11 (concentration: 1mM); 1.07 ± 0.053 (concentration: 2mM); 1.06 ± 0.05 (concentration: 4mM); 0.965 ± 0.068 (concentration: 6mM). Moreover, the NP40-soluble protein abundance by setting is: (concentration: 8mM) 1.08 ± 0.049; (concentration: 10mM) 0.9982 ± 0.0075.

For the target UniProt Q8IUD2 and related entries, the NP40-soluble protein abundance by setting is: (concentration: 0.1mM) 0.966 ± 0.022; (concentration: 0.5mM) 0.971 ± 0.069; (concentration: 1mM) 0.993 ± 0.058; (concentration: 2mM) 0.985 ± 0.091; (concentration: 4mM) 0.96 ± 0.055; (concentration: 6mM) 0.964 ± 0.081. For the same target, the NP40-soluble protein abundance (concentration: 8mM) turned out to be 0.99 ± 0.044 and the NP40-soluble protein abundance (concentration: 10mM) came out at 0.998 ± 0.064.

For the target PIAS4 (UniProt Q8N2W9), the NP40-soluble protein abundance runs as follows: (concentration: 0.1mM) 1 ± 0.031; (concentration: 0.5mM) 1.02 ± 0.023; (concentration: 1mM) 0.926 ± 0.066; (concentration: 2mM) 0.953 ± 0.043; (concentration: 4mM) 0.93 ± 0.038; (concentration: 6mM) 0.914 ± 0.072. Moreover, the NP40-soluble protein abundance is, setting by setting: (concentration: 8mM) 0.958 ± 0.072; (concentration: 10mM) 0.92 ± 0.069.

Turning to UniProt Q8N8A2 and related entries, the NP40-soluble protein abundance by setting is: (concentration: 0.1mM) 1.12 ± 0.033; (concentration: 0.5mM) 1.09 ± 0.11; (concentration: 1mM) 1.05 ± 0.1; (concentration: 2mM) 1.18 ± 0.083; (concentration: 4mM) 1.1 ± 0.12; (concentration: 6mM) 1.1 ± 0.13. Further, the NP40-soluble protein abundance (concentration: 8mM) amounted to 1.1 ± 0.16 and the NP40-soluble protein abundance (concentration: 10mM) was found to be 1.04 ± 0.12.
